These are yes or no findings as the source states them, for the method shown. Binding seen in cells or lysates may run through a third protein. Some results given as binding are weak or reduced against the parent protein; the word gives no strength.

The chains behind the UniProt entries cited, without tags or fusion partners.
UniProt O95373: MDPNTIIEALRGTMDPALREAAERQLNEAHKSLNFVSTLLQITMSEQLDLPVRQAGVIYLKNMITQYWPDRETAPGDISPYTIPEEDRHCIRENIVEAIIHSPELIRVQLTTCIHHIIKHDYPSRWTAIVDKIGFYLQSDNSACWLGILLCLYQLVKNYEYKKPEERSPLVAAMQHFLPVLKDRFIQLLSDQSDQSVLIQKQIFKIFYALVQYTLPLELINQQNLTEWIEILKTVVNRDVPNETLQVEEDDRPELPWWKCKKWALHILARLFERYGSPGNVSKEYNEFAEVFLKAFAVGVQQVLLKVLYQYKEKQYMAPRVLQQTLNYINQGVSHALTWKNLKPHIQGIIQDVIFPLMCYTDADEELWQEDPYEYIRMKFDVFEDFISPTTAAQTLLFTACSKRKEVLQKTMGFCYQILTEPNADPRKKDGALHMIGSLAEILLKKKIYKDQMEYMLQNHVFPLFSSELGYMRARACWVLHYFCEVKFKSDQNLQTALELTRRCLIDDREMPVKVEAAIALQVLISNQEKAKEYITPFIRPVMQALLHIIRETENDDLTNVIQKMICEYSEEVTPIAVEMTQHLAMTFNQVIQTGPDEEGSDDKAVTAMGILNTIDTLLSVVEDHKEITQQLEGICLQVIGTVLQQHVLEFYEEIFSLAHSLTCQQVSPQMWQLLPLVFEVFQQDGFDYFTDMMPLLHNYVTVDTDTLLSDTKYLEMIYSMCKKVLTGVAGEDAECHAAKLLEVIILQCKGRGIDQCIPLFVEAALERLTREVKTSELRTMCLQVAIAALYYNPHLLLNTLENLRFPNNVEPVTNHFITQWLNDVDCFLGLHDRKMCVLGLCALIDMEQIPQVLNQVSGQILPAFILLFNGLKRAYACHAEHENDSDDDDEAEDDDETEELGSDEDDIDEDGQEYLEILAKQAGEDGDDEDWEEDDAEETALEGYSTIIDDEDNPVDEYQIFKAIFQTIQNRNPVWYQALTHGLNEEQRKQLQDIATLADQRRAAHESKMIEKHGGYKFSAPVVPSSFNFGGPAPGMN

The assay has as its target importin-7/RanBP7 (IPO7) (human (endogenous in PLC/PRF/5 and Huh7)) (UniProt O95373). The assay can be described thus: co-IP; endogenous proteins; ~200 ug whole cell lysate (IP lysis buffer, protease inhibitors) of PLC/PRF/5 and Huh7 cells, for p-Erk and IPO7 from cells infected with empty or MTBP lentiviral vector; protein-specific antibodies overnight at 4 C, protein A/G plus-agarose; western blotting; isotype controls.

B1: MDM2 Binding Protein (MTBP), endogenous (protein, UniProt Q96DY7 1-904)
chain: MDRYLLLVIWGEGKFPSAASREAEHGPEVSSGEGTENQPDFTAANVYHLLKRSISASINPEDSTFPACSVGGIPGSKKWFFAVQAIYGFYQFCSSDWQEIHFDTEKDKIEDVLQTNIEECLGAVECFEEEDSNSRESLSLADLYEEAAENLHQLSDKLPAPGRAMVDIILLLSDKDPPKLKDYLPTVGALKHLREWYSAKITIAGNHCEINCQKIAEYLSANVVSLEDLRNVIDSKELWRGKIQIWERKFGFEISFPEFCLKGVTLKNFSTSNLNTDFLAKKIIPSKDKNILPKVFHYYGPALEFVQMIKLSDLPSCYMSDIEFELGLTNSTKQNSVLLLEQISSLCSKVGALFVLPCTISNILIPPPNQLSSRKWKEYIAKKPKTISVPDVEVKGECSSYYLLLQGNGNRRCKATLIHSANQINGSFALNLIHGKMKTKTEEAKLSFPFDLLSLPHFSGEQIVQREKQLANVQVLALEECLKRRKLAKQPETVSVAELKSLLVLTRKHFLDYFDAVIPKMILRKMDKIKTFNILNDFSPVEPNSSSLMETNPLEWPERHVLQNLETFEKTKQKMRTGSLPHSSEQLLGHKEGPRDSITLLDAKELLKYFTSDGLPIGDLQPLPIQKGEKTFVLTPELSPGKLQVLPFEKASVCHYHGIEYCLDDRKALERDGGFSELQSRLIRYETQTTCTRESFPVPTVLSPLPSPVVSSDPGSVPDGEVLQNELRTEVSRLKRRSKDLNCLYPRKRLVKSESSESLLSQTTGNSNHYHHHVTSRKPQTERSLPVTCPLVPIPSCETPKLATKTSSGQKSMHESKTSRQIKESRSQKHTRILKEVVTETLKKHSITETHECFTACSQRLFEISKFYLKDLKTSRGLFEEMKKTANNNAVQVIDWVLEKTSKK
As to B1, the binding result was “binds”.

The values above are taken from PMC5940416.
